This note sets out measurements from patent US20230220005A1, “S100A8-INHIBITING PEPTIDE AND DISEASE THERAPEUTIC AGENT CONTAINING SAME” (TOKYO WOMEN'S MEDICAL UNIVERSITY, priority 2020, published 2023).

Protein sequences, listed by entry. Tags and fused reporters are not part of them. Lines headed by an entry give the natural chain unless they say otherwise; changes in a name come on top.
UniProt O00206: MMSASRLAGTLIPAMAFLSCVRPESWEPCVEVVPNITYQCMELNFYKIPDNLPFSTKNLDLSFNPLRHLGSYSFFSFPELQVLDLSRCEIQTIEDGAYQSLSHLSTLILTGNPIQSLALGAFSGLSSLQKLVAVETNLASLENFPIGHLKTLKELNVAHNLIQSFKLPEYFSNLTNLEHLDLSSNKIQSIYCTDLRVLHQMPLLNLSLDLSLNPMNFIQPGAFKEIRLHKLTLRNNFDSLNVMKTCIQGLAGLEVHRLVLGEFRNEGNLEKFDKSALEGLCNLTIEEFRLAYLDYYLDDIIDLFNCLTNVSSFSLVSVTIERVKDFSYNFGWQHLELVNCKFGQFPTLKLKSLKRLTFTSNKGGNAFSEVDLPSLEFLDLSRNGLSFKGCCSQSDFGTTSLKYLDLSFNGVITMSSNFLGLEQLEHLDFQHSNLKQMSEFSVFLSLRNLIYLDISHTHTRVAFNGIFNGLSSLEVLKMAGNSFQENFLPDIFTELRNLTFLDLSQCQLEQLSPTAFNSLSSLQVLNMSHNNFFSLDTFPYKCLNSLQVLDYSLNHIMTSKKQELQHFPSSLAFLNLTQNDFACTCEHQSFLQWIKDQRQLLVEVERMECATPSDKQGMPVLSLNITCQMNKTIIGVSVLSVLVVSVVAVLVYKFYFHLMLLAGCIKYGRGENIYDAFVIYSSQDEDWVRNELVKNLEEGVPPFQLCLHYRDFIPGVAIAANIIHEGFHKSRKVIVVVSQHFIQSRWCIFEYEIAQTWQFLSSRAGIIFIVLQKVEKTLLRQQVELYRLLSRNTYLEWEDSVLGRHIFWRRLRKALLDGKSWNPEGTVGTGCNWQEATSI
UniProt Q9Y6Y9: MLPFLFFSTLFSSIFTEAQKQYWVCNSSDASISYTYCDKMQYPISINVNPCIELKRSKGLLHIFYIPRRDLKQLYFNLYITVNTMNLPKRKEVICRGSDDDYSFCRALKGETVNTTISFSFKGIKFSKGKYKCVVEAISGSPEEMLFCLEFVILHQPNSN

Test [1] concerns the target T1, TLR4/MD-2 (Homo sapiens, UniProt O00206+Q9Y6Y9). Description: divalent peptides spot-synthesized on a cellulose membrane sheet, reacted with TLR4/MD-2.
Test [2] has as its target T1, TLR4/MD-2. In words: divalent peptide sheet binding (FIG. 7A) and competition assay (FIG. 7B).
In test [3] the target is T1, TLR4/MD-2. In words: ELISA, peptide immobilized, alanine scanning.
In test [4] the target is T1, TLR4/MD-2. Description: ELISA, peptide immobilized, TLR4/MD-2 detected with anti-TLR4 antibody, OD 450 nm. A general note: In an ELISA, binding on a coated surface is turned into a signal by an enzyme label.

No constants are given. Whether binding was seen depends on the method and setting. Some binding calls cover weakened binding; strength is not graded here.

B1: SEQ ID NO 3 (peptide)
peptide: FQEFAILVI
Turning to B1, the binding entry with TLR4/MD-2 [1] and in the test with TLR4/MD-2 [2] was “binds” in each case.

B2: Peptide3A5 (peptide)
peptide: FQEFAILVIK
modifications: acetylation at the amino terminus; amidation at the carboxyl terminus
Consider B2, for which, in the test with TLR4/MD-2 [3], the binding entry is reported as “binds”.

B3: SEQ ID NO 5 (peptide)
peptide: EFAILVI
As for B3, the binding result with TLR4/MD-2 [1] is listed as “binds”.

B4: Peptide3A8 (peptide)
peptide: FQEFLILAIK
modifications: acetylation at the amino terminus; amidation at the carboxyl terminus
For B4, the binding entry with TLR4/MD-2 [3] is “binds”.

B5: Peptide #3 (peptide)
peptide: FQEFLILVIK
As for B5, the binding entry with TLR4/MD-2 [4] was “binds”.

B6: SEQ ID NO 8 (peptide)
peptide: FAILV
Take B6: the binding result in the test with TLR4/MD-2 [1] was “binds”.

B7: Peptide3A7 (peptide)
peptide: FQEFLIAVIK
modifications: acetylation at the amino terminus; amidation at the carboxyl terminus
With B7, the binding entry with TLR4/MD-2 [3] is given as “binds”.

B8: SEQ ID NO 6 (peptide)
peptide: EFAILV
On to B8, for which the binding result with TLR4/MD-2 [1] was “binds”.

B9: divalent Peptide3A5 (peptide)
peptide: FQEFAILVIK
B9: the binding entry with TLR4/MD-2 [1] was “binds”.

B10: SEQ ID NO 12 (peptide)
peptide: QEFAILVI
Regarding B10, in the test with TLR4/MD-2 [1], the binding entry is reported as “binds”.

B11: Peptide3A10 (peptide)
peptide: FQEFLILVIA
modifications: acetylation at the amino terminus; amidation at the carboxyl terminus
For the molecule B11, the binding entry with TLR4/MD-2 [3] is “binds”.

B12: SEQ ID NO 10 (peptide)
peptide: AILVIK
On to B12, for which the binding entry with TLR4/MD-2 [1] is “binds”.

B13: SEQ ID NO 11 (peptide)
peptide: FQEFAILV
Regarding B13, in the test with TLR4/MD-2 [1], the binding result is given as “binds”.

B14: SEQ ID NO 4 (peptide)
peptide: QEFAILV
B14: the binding entry with TLR4/MD-2 [1] and with TLR4/MD-2 [2] was “binds” in each case.

B15: SEQ ID NO 7 (peptide)
peptide: FAILVI
For the molecule B15, the binding entry with TLR4/MD-2 [1] is given as “binds”.

B16: Peptide3A6 (peptide)
peptide: FQEFLALVIK
modifications: acetylation at the amino terminus; amidation at the carboxyl terminus
For B16, the binding entry with TLR4/MD-2 [3] is listed as “binds”.

B17: SEQ ID NO 9 (peptide)
peptide: AILVI
For the molecule B17, the binding result in the test with TLR4/MD-2 [1] is recorded as “binds”.
